The subject of experiment [1] is IL-6-GFP PC-9GR. In words: IL-6-GFP fluorescence relative to DMSO control (fraction of control); higher = more IL-6-GFP expression. Conditions: compound concentration: 10 uM; treatment time: 48 h. On the procedure:
(§1)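 IL-6-GFP-overexpressing PC-9 and PC-9GR EGFR-mutant lung cancer cells (3000 cells/well, 96-well) were treated for 48 h with each compound of the Selleck L2000 library at 10 uM. IL-6-GFP fluorescence was read on a high-content screening system, and viability by CCK-8 absorbance on a parallel plate set. Each value was normalised as compound well / DMSO control well; two independent replicates.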

For experiment [2], the system named is IL-6-GFP PC-9. The description is as above. Conditions: compound concentration: 10 uM; treatment time: 48 h. Here is the method:
as §1

± gives the standard deviation of the averaged measurements. This is one part of the list. Single values are uncertain here, since repeats match poorly.

Regarding `CNC(=O)c1cc(Oc2ccc(NC(=O)Nc3ccc(Cl)c(C(F)(F)F)c3)c(F)c2)ccn1` [Regorafenib (BAY 73-4506)], the IL-6-GFP fluorescence in experiment [1] was determined as 0.958 ± 0.14; in experiment [2] it was 1.02 ± 0.067.

`COC(c1ccccc1)(c1ccccc1)C(Oc1nc(C)cc(C)n1)C(=O)O` (stereo unspecified) [Ambrisentan]: the IL-6-GFP fluorescence in experiment [1] was 0.853 ± 0.08; in experiment [2], 0.885 ± 0.34.

Regarding `O=C1Nc2ccccc2/C1=C1\Nc2ccccc2C1=O` [Indirubin], the figures for the IL-6-GFP fluorescence in experiment [1] and in experiment [2] were 0.813 ± 0.049 and 0.872 ± 0.16, respectively.

Consider `Cc1ccc(C(C)C)c(O)c1` [Thymol], for which the results for the IL-6-GFP fluorescence in experiment [1] and in experiment [2] were 1.18 ± 0.37 and 0.857 ± 0.072, respectively.

Regarding `Nc1nc(N)c2nc(-c3ccccc3)c(N)nc2n1` [Triamterene], the figures for the IL-6-GFP fluorescence in experiment [1] and in experiment [2] were 1.42 ± 0.028 and 1.08 ± 0.097, respectively.

As to `Nc1nc(=S)c2[nH]cnc2[nH]1` [Thioguanine], the IL-6-GFP fluorescence in experiment [1] came out at 0.56 ± 0.39; in experiment [2], 0.795 ± 0.045.

Turning to `Cc1nc2ccc(CN(C)c3ccc(C(=O)NC(CCC(=O)O)C(=O)O)s3)cc2c(=O)[nH]1` (stereo unspecified) [Raltitrexed], the IL-6-GFP fluorescence was determined as 1.02 ± 0.076 in experiment [1] and 0.99 ± 0.047 in experiment [2].

Consider `CCC(c1ccc(O)cc1)C(CC)c1ccc(O)cc1` (stereo unspecified) [Hexestrol], for which the IL-6-GFP fluorescence in experiment [1] worked out at 0.967 ± 0.05; in experiment [2], 0.78 ± 0.18.

For the compound `CC1CNc2c(cccc2S(=O)(=O)NC(CCCNC(=N)N)C(=O)N2CCC(C)CC2C(=O)O)C1.O` (stereo unspecified) [Argatroban Monohydrate], the IL-6-GFP fluorescence in experiment [1] was determined as 0.869 ± 0.042; in experiment [2] it was 0.85 ± 0.067.

Take `CC/C(=C(/CC)c1ccc(O)cc1)c1ccc(O)cc1` [Diethylstilbestrol]: the IL-6-GFP fluorescence was determined as 0.547 ± 0.23 in experiment [1] and 0.966 ± 0.11 in experiment [2].

On to `CC(C)=CCOc1ccc(/C=C/C(=O)c2ccc(OCC=C(C)C)cc2OCC(=O)O)cc1` [Sofalcone], for which the values for the IL-6-GFP fluorescence in experiment [1] and in experiment [2] were 0.902 ± 0.13 and 0.774 ± 0.14, respectively.

In the case of `CC(C)C(=O)OCC(=O)C12OC(C3CCCCC3)OC1CC1C3CCC4=CC(=O)C=CC4(C)C3C(O)CC12C` (stereo unspecified) [Ciclesonide], the IL-6-GFP fluorescence was 0.497 ± 0.31 in experiment [1] and 1.07 ± 0.29 in experiment [2].

In the case of `O=NN(CCCl)C(=O)NCCCl` [Carmustine], the figures for the IL-6-GFP fluorescence in experiment [1] and in experiment [2] were 0.914 ± 0.032 and 0.728 ± 0.13, respectively.

For `COc1cc2c(Oc3ccc4[nH]c(C)cc4c3F)ccnc2cc1OCC1(N)CC1.Cl.Cl` [Anlotinib (AL3818) dihydrochloride], the values for the IL-6-GFP fluorescence in experiment [1] and in experiment [2] were 0.946 ± 0.23 and 0.784 ± 0.41, respectively.

Consider `O=C(O)c1cc(O)c(O)c(O)c1` [Gallic acid], for which the IL-6-GFP fluorescence in experiment [1] is 0.83 ± 0.32; in experiment [2], 0.711 ± 0.41.

Consider `CC(=O)N1CC(O)CC1C(=O)O` (stereo unspecified) [Oxaceprol], for which the results for the IL-6-GFP fluorescence in experiment [1] and in experiment [2] were 0.608 ± 0.46 and 0.9661 ± 0.0038, respectively.

In the case of `CC(=O)OCC(=O)C1(O)CCC2C3CCC4=CC(=O)CCC4(C)C3C(=O)CC21C` (stereo unspecified) [Cortisone acetate], the values for the IL-6-GFP fluorescence in experiment [1] and in experiment [2] were 1.17 ± 0.23 and 0.795 ± 0.071, respectively.

For `O=c1ccc2cc3ccoc3cc2o1` [Psoralen], the IL-6-GFP fluorescence in experiment [1] came to 0.652 ± 0.52; in experiment [2], 1.14 ± 0.14.

Take `Cc1coc2c1C(=O)C(=O)c1c-2ccc2c(C)cccc12` [Tanshinone I]: the IL-6-GFP fluorescence in experiment [1] came out at 0.692 ± 0.18; in experiment [2] it was 0.856 ± 0.17.

As for `CN1CCN(C(c2ccccc2)c2ccccc2)CC1.Cl.Cl` [Cyclizine 2HCl], the IL-6-GFP fluorescence in experiment [1] turned out to be 0.671 ± 0.2; in experiment [2], 0.912 ± 0.011.

For the compound `CC1(C(=O)O)CCC2(C)CCC3(C)C(=CC(=O)C4C5(C)CCC(OC6OC(C(=O)O)C(O)C(O)C6OC6OC(C(=O)O)C(O)C(O)C6O)C(C)(C)C5CCC43C)C2C1.N.N` (stereo unspecified) [Diammonium Glycyrrhizinate], the values for the IL-6-GFP fluorescence in experiment [1] and in experiment [2] were 0.893 ± 0.13 and 0.985 ± 0.44, respectively.

As for `FC(F)(F)c1ccc(CNc2ccc(Cc3c[nH]c4ncc(Cl)cc34)cn2)cn1` [Pexidartinib (PLX3397)], the results for the IL-6-GFP fluorescence in experiment [1] and in experiment [2] were 1.04 ± 0.37 and 0.904 ± 0.0098, respectively.

Regarding `CC/C(=C(\c1ccccc1)c1ccc(OCCN(C)C)cc1)c1ccccc1.O=C(O)CC(O)(CC(=O)O)C(=O)O` [Tamoxifen], the IL-6-GFP fluorescence worked out at 1 ± 0.057 in experiment [1] and 0.889 ± 0.078 in experiment [2].

As to `COC1CC2CCC(C)C(O)(O2)C(=O)C(=O)N2CCCCC2C(=O)OC(C(C)CC2CCC(OC(=O)C(C)(CO)CO)C(OC)C2)CC(=O)C(C)/C=C(\C)C(O)C(OC)C(=O)C(C)CC(C)/C=C/C=C/C=C/1C` (stereo unspecified), the values for the IL-6-GFP fluorescence in experiment [1] and in experiment [2] were 1.16 ± 0.19 and 0.91 ± 0.079, respectively.

As to `NCCc1c[nH]cn1` [Histamine], the IL-6-GFP fluorescence worked out at 0.645 ± 0.56 in experiment [1] and 0.996 ± 0.027 in experiment [2].

Consider `Cc1cnc(Nc2ccc(OCCN3CCCC3)cc2)nc1Nc1cccc(S(=O)(=O)NC(C)(C)C)c1`, for which the IL-6-GFP fluorescence in experiment [1] was determined as 0.916 ± 0.026; in experiment [2], 1.033 ± 0.0012.

On to `Cc1cccn2c(=O)c(-c3nnn[n-]3)cnc12.[K+]` [Pemirolast potassium], for which the figures for the IL-6-GFP fluorescence in experiment [1] and in experiment [2] were 0.896 ± 0.26 and 0.88499 ± 0.00011, respectively.

Take `Cc1cc(S(=O)(=O)[O-])c2c(C)ccc(C(C)C)cc1-2.[Na+]` [Sodium gualenate]: the IL-6-GFP fluorescence was 0.85 ± 0.11 in experiment [1] and 0.784 ± 0.014 in experiment [2].

The values above are taken from the supplement of paper PMC8866396.
